Results published in US9249097B2, “3-aminocarbazole compound, pharmaceutical composition containing it and preparation method therefor” (AZIENDE CHIM. RIUN. ANG. FRANC. A.C.R.A.F. S.p.A., priority 2008, dated 2016).

Assay: in vitro
Settings: human, Caco-2, pH 7.4
Protocol: This test allows evaluation of the amount absorbed by the intestinal barrier of the compounds of the invention and of the comparative compounds using the Caco-2 cell line as an in vitro model of intestinal barrier. The permeability test on Caco-2 cells represents an in vitro system approved for predicting and estimating the in vivo intestinal absorption of a drug. When the Caco-2 cells are cultured on a porous filter for about 21 days, they have the capacity to differentiate into enterocytes.
The compounds undergoing the test were diluted from a 10 mM stock solution in HBSS to a final concentration of 10 μM. The system consisted of a confluent cellular monolayer in culture for 21-28 days. […]
The samples collected at the given time were analysed by HPLC-MS/MS, using an electrospray ion source in positive ionization and SRM (Single Reaction Mode). […]
The concentration data were used to calculate the apparent permeability values (Papp), and the mean and standard deviation of the Papp were calculated.
The flux ratio was calculated as Papp(B→A)/Papp(A→B). The recovery percentage was calculated as: (amount in the receiving compartment+amount in the donor compartment)/nominal amount
The area of the peaks of the test compounds were integrated and the results were expressed as the analyte area/internal standard area ratio and corrected for the dilution factor used during the preparation of the sample. […]

Papp at 3600 seconds, 10 μM: < 2 ×10⁻⁶ cm/s
SMILES: CC(C)NCC(O)COc1ccc(CC(N)=O)cc1 (stereo not shown) [Atenolol, atenolol, reference compound]
